Laboratory results published in WO2001072771A2.
Results are given in words; binding and its absence hold for the method and conditions named. Some results given as binding are weak or reduced against the parent protein; the word gives no strength.

Sequences of proteins named here, by UniProt entry; tags and fusion partners are left off. A change or cut given only in a name is not applied to a line headed by its entry. Residues count along the entry.
UniProt P06213: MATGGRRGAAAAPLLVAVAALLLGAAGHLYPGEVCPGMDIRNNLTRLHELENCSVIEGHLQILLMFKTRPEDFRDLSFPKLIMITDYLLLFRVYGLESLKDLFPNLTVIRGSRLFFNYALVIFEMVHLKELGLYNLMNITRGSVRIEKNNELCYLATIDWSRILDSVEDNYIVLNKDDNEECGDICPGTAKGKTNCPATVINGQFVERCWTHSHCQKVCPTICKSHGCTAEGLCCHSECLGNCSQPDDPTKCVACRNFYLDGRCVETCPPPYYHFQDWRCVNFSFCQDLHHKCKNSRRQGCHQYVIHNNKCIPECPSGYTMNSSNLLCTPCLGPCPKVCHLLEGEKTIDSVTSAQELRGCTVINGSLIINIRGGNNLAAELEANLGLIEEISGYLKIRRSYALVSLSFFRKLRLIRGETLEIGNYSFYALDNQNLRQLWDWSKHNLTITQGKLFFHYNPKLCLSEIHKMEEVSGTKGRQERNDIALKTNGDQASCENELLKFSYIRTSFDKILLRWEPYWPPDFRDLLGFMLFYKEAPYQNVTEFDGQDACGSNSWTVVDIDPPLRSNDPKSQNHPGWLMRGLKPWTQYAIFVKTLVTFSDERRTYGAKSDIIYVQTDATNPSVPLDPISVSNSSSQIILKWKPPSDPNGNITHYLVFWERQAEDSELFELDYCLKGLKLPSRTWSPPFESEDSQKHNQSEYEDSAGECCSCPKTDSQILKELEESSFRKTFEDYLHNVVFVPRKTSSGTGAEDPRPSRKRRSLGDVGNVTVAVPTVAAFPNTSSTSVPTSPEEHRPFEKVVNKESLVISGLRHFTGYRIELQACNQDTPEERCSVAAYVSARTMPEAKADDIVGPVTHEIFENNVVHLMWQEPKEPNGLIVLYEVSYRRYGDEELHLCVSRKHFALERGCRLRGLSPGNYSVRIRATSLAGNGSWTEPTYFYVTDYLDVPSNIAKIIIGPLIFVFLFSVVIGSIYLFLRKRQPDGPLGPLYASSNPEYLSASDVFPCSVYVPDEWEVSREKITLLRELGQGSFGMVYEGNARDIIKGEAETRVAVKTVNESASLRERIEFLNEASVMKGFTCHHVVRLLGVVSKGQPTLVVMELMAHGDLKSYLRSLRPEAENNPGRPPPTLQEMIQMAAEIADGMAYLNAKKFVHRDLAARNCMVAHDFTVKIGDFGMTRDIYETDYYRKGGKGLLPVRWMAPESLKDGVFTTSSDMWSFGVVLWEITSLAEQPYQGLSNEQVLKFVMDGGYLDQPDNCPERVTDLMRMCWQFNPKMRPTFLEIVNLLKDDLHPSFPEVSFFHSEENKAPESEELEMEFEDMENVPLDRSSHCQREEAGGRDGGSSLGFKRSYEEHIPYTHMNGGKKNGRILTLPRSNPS
human insulin receptor (HIR): residues 28-1382 of P06213
soluble human insulin receptor (IR-Fc): residues 28-956 of P06213
UniProt P08069: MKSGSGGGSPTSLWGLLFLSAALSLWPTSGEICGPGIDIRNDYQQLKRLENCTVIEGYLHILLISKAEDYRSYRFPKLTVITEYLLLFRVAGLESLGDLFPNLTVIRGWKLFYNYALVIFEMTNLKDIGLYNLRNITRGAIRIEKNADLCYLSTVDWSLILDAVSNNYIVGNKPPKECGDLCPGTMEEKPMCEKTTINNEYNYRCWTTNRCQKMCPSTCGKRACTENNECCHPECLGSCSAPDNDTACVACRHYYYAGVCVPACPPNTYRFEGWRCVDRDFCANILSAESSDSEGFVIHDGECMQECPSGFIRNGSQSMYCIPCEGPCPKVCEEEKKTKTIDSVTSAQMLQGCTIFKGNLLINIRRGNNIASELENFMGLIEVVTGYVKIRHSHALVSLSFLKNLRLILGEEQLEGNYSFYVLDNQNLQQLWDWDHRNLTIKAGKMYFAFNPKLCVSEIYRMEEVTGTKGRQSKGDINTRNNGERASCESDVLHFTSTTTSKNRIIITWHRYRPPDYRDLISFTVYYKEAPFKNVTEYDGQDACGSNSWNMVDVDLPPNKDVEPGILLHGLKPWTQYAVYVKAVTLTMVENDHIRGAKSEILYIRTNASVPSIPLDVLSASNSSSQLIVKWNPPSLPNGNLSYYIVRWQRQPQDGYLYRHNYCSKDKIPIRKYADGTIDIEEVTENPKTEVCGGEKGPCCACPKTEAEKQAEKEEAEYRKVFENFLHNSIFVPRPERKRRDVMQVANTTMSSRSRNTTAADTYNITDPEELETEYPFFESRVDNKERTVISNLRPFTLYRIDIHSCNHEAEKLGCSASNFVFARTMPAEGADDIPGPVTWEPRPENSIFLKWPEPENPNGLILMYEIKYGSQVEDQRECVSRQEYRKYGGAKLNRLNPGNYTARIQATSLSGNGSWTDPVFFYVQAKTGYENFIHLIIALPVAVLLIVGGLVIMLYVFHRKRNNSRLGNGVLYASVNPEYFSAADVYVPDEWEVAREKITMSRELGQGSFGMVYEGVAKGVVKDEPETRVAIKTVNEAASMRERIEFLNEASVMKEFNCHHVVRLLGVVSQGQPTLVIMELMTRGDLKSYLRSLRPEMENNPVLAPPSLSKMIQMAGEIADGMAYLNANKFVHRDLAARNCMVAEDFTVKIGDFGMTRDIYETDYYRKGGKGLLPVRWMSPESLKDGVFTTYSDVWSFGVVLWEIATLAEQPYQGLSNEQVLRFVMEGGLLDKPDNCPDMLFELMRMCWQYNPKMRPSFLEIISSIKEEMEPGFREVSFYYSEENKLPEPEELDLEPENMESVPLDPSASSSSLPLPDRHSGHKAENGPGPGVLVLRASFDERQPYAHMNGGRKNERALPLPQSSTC
sIGF-1R-Fc: residues 31-935 of P08069
soluble IGF-1 receptor: residues 31-932 of P08069

Assays:
[1] = biological target: soluble human insulin receptor (IR-Fc) (human) (UniProt P06213); experiment: phage ELISA, relative binding to sIR
sIGF-1R-Fc = sIGF-1R-Fc (UniProt P08069); experiment: phage ELISA, relative binding to sIGF-1R-Fc
[2] = biological target: soluble human insulin receptor (IR-Fc) (human) (UniProt P06213); experiment: competition phage ELISA
[3] = biological target: soluble human insulin receptor (IR-Fc) (human) (UniProt P06213); experiment: phage ELISA
[4] = biological target: human insulin receptor (HIR) (human) (UniProt P06213); experiment: displacement of 125I-insulin from HIR
[5] = biological target: soluble IGF-1 receptor (human) (UniProt P08069); experiment: heterogeneous time-resolved fluorescence assay
[6] = biological target: soluble human insulin receptor (IR-Fc) (human) (UniProt P06213); experiment: heterogeneous time-resolved fluorescence assay
[7] = biological target: soluble IGF-1 receptor (human) (UniProt P08069); experiment: ELISA
[8] = biological target: soluble IGF-1 receptor (human) (UniProt P08069); experiment: time-resolved FRET, Eu-IGF-1R with b-20E2 and SA-APC

In the case of APTFYAWFNQQTGGGS [IM445 (Δ-12-3 #6)], the binding [1] is reported as “binds” and the binding (sIGF-1R-Fc) is reported as “binds”.

With NSFYEALRMLSSGGGS [IM460 (Δ-12-3* #76)] the binding [1] was “binds”.

In the case of WNTVDPFYHKLSELLREKK [B6 peptide], the binding [2] is reported as “binds”.

For HPSTNQMLMKLFGGGS [IM450 (Δ-12-3 #28)], the binding [3] was “binds”.

With HPPLEHLKAFLLGGGS [IM452 (Δ-12-3 #23)] the binding [3] was “binds” and the binding [1] was “binds”.

In the case of SLNFYDALQLLAGGGS [IM453 (Δ-12-3 #112)], the binding [1] is reported as “binds” and the binding (sIGF-1R-Fc) is reported as “binds”.

For WSDFYSYFQGLDGGGS [IM465 (Δ-12-3 #193)], the binding [1] was “binds”.

For HLCVLEELFWGASLFGYCSG (biotin on the side chain of the C-terminal lysine) [D124], the binding [4] was “binds”.

For DYKDCWARPCGDAANFYDWFVQQASKK [C1 peptide], the binding [2] was “binds”, the binding [5] was “binds” and the binding [6] was “binds”.

HPPLSELKLFLIGGGS [IM451 (Δ-12-3 #34)] was tested, and the binding [3] was “binds” and the binding [1] was “binds”.

For SDGFYNAIELLSGGGS [IM448 (Δ-12-3 #40)], the binding [1] was “binds”.

For LCQSWGVRIGWLAGLCP [JBA5 phage], the binding [7] was “binds”.

With HPTSKEIYAKLLGGGS [IM449 (Δ-12-3 #43)] the binding [3] was “binds” and the binding [1] was “binds”.

For DYKDVTFTSAVFHENFYDWFVRQVSKK [H2 peptide], the binding [2] was “binds”.

In the case of VTFTSAVFHENFYDWFVRQVS [H2 phage], the binding [3] is reported as “binds”.

For DYKDFYDAIDQLVRGSARAGGTRDKK (ε-biotin on the C-terminal lysine) [biotinylated 20E2 peptide], the binding [8] was “binds”.

For HDPFYSMMKSLLGGGS [IM455 (Δ-12-3* #10)], the binding [1] was “binds” and the binding (sIGF-1R-Fc) was “binds”.

With SSNFYQALMLLSGGGS [IM466 (Δ-12-3* #146)] the binding [1] was “binds” and the binding (sIGF-1R-Fc) was “binds”.

With SFYEAIHQLLGVGGGS [IM447 (Δ-12-3 #45)] the binding [1] was “binds” and the binding (sIGF-1R-Fc) was “binds”.

HETFYSMIRSLAGGGS [IM446 (Δ-12-3 #24)] was tested, and the binding [1] was “binds” and the binding (sIGF-1R-Fc) was “binds”.

With HPSLSDMRWILLGGGS [IM459 (Δ-12-3* #60)] the binding [3] was “binds” and the binding [1] was “binds”.
